Data taken from US9388140B2, “Substituted benzimidazoles” (priority 2011, dated 2016).
The structures given here were assigned with low confidence; some may be wrong.

The chains behind the UniProt entries cited, without tags or fusion partners.
UniProt P33981, whole entry: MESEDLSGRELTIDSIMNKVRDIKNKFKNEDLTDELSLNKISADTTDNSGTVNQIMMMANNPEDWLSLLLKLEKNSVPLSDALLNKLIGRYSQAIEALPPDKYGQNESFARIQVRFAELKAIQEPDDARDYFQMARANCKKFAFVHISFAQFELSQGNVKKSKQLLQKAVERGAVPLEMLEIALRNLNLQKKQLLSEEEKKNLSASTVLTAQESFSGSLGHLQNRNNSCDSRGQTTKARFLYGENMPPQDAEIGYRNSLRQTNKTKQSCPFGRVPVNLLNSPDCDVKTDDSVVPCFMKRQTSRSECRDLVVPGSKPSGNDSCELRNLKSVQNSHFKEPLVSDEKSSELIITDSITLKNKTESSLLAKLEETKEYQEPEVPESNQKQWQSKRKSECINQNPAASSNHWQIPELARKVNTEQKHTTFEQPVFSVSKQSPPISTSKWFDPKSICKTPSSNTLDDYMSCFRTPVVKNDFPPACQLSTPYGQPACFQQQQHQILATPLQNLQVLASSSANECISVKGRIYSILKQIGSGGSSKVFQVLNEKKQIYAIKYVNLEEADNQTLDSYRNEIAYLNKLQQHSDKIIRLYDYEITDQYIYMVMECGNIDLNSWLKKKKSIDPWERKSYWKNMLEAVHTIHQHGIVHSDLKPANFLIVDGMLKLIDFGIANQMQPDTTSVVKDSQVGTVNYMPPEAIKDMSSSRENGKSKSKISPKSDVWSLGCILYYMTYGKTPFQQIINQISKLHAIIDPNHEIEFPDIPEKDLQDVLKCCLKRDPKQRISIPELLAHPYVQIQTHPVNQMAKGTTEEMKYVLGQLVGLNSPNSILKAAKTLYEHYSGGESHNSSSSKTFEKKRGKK

Biological target: human kinase Mps-1 (Homo sapiens (Human), UniProt P33981)
Experiment: Mps-1 kinase assay (TR-FRET)
Format: biochemical
Settings: read-out: Mps1 IC50; N-terminally GST-tagged human full length recombinant Mps-1; 10 μM ATP; 1 μM biotinylated peptide substrate

## COc1ccc(Oc2cc(NCC3CCOCC3)c3ncn(-c4ccc(C(=O)NC5CC5)c(C)c4)c3c2)c(F)c1
  IC50: 0.4 nM
